Assay results published in publication PMC5996148.
The list shows a part of the results. For some of these results: The source does not settle which construct or isoform was used.

Key:
Assay in all cases: protein microarray (ProtoArray v5.0), streptavidin-Alexa Fluor 647
Details in all cases: 3'-biotin; 20 mM Tris (pH 7.5), 5 mM MgCl2, 100 mM KCl, 0.1% Tween-20, A/T-rich and random oligonucleotide blockers; temperature not stated; high values mean tight binding
GSTM3 (human) = tested on: GSTM3 (human)
GSTP1 (human) = tested on: GSTP1 (human)
GTF2E1 (human) = tested on: GTF2E1 (human)
GTF2H5 (human) = tested on: GTF2H5 (human)
GTF2I (human) = tested on: GTF2I (human)
[1] = tested on: GTP-binding nuclear protein Ran (human)
GTPBP8 (human) = tested on: GTPBP8 (human)
GUCA1A (human) = tested on: GUCA1A (human)
GYG2 = biological target: T1, GYG2 (UniProt O15488)
T1 sequence: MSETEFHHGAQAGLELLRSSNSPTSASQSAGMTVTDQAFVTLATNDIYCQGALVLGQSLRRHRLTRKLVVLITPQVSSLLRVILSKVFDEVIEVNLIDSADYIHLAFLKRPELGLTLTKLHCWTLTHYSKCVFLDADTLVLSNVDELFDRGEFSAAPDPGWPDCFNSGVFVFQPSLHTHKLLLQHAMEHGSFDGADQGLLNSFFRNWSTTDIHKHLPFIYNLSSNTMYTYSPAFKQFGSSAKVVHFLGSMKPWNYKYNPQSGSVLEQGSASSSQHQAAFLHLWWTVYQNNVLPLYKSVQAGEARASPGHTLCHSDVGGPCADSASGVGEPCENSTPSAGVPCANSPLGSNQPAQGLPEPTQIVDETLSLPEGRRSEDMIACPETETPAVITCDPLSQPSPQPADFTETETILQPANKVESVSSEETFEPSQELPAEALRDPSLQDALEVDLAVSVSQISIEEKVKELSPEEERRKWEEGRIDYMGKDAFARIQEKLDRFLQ

GYPC = biological target: T2, GYPC (UniProt P04921)
T2 sequence: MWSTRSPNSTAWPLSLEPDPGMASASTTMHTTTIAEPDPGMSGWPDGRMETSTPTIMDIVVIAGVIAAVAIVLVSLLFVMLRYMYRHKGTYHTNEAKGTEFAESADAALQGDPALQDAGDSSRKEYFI

GGTGACAGGGGTATGGGGAGGGG [G4-2 biotinylated (Ct1)]
binding signal (GSTM3 (human)): -0.399 z-score
binding signal (GSTP1 (human)): -0.381 z-score
binding signal (GTF2E1 (human)): -0.381 z-score
binding signal (GTF2H5 (human)): -0.393 z-score
binding signal (GTF2I (human)): -0.396 z-score
binding signal [1]: -0.392 z-score
binding signal (GTPBP8 (human)): -0.372 z-score
binding signal (GUCA1A (human)): -0.399 z-score
binding signal (GYG2): -0.398 z-score
binding signal (GYPC): -0.394 z-score
